{"source": "patent US12421277B2", "about": "“Anti-aging salmon roe tripeptide and preparation method and application thereof” (Shenzhen Porshealth Bioengineering Co., Ltd., priority 2023, dated 2025)", "key": {"[1]": {"test_system": "aging mice induced by D-galactose", "assay": "Blood antioxidant indexes of aging mice induced by D-galactose", "assay_type": "in vivo, C57BL/6J mice", "conditions": "intragastric 7 weeks; vs model group"}, "[2]": {"test_system": "aging mice induced by D-galactose", "assay": "Skin indexes of aging mice induced by D-galactose", "assay_type": "in vivo, C57BL/6J mice", "conditions": "intragastric 7 weeks, salmon polypeptide 75 or 150 mg/kg bw, YLP 150 mg/kg bw, vs model group"}}, "note": "Not every detail of the peptide structures is certain; ends, links or a residue may be inferred. Where a SMILES comes first, the peptide text is derived from it."}
{"smiles": "CC(C)C[C@H](NC(=O)[C@@H](N)Cc1ccc(O)cc1)C(=O)N1CCC[C@H]1C(=O)O", "note": "[YLP] (H-Tyr-Leu-Pro-OH; N-terminus and C-terminus assumed)", "values": [{"measurement": "activity of SOD in blood of aging mice", "setting": "[1]", "result": "very significant effect"}, {"measurement": "content of GSH-Px in blood of aging mice", "setting": "[1]", "result": "significant improvement effect"}, {"measurement": "content of glutathione (GSH) in blood of aging mice", "setting": "[1]", "result": "very significant"}, {"measurement": "content of hyaluronic acid in the skin of aging mice", "setting": "[2]", "result": "significantly increase"}, {"measurement": "content of collagen in the skin of aging mice", "setting": "[2]; P<0.05", "result": "significant collagen improvement effect"}]}
